± gives the standard deviation. The entries are a selection whose mix differs from that of the whole data set. Many of these values have a large error.

This assay deals with MILI (PIWIL2) piRISC loaded with Kctd7 piRNA (26 nt). Kind of assay: pre-steady-state target cleavage rate (min^-1); MIWI and MILI are mouse PIWI proteins and EfPiwi is from a freshwater sponge; tags in brackets are library labels; higher = faster piRNA-guided slicing of the target. The settings on record: guide: Kctd7 piRNA 5'p-UGUUAAUCUCUCAGAGAAGGUGACAG; auxiliary factor: 500 nM mouse GTSF1. A digest of the protocol:
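Sequencing of uncleaved targets, normalised to depth and to weakly complementary targets, was the readout of this Cleave-'n-Seq assay. A transcribed, DNA-blocked target RNA library (0.1 nM) was mixed with 1 nM active affinity-purified piRISC carrying one synthetic guide, with or without 500 nM GTSF1 partner protein, in HEPES–potassium acetate buffer at 33 °C for 0–8 or 0–960 min. Three trials were pooled, k3 was capped at 0.0001 min^-1, and a burst-and-steady-state fit gave the pre-steady-state cleavage rate.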
UAGUGACUCACCUUCUCUGAGUCAUUAACA: the “pre-steady-state target cleavage rate” value was 0.00108 ± 0.01.

Turning to UAGUGACAGUCCAUCUCUGAGAGUUUAACA, the “pre-steady-state target cleavage rate” value amounted to 0.00301 ± 0.0032.

Take UAGUGAGUCAGGAUCUCUGAGAGAUUAUGA: the “pre-steady-state target cleavage rate” value stood at 0.0014 ± 0.0042.

Regarding UAGUGACUCACCUUCUCUGAGAGAUUAAA, the “pre-steady-state target cleavage rate” value was found to be 0.13 ± 0.031.

UAGUGACAGACGUUCUCUGAGUGAUUAACA: the “pre-steady-state target cleavage rate” value is 0.00122 ± 0.01.

UAGUGACAGUGGAUCAUCUGAGAGAUUAACA: the “pre-steady-state target cleavage rate” value turned out to be 0.000963 ± 0.0028.

Regarding UAGUGACAGUCCUUCUCUGAGCGAUUAACA, the “pre-steady-state target cleavage rate” value was 0.00135 ± 0.0049.

Turning to UAGUGACAGUGGAACUCUGAGAGAUUAAGCA, the “pre-steady-state target cleavage rate” value was 0.000173 ± 0.033.

Regarding UAGUGACAGUGGAAGUCUGAUAGAUUAACA, the “pre-steady-state target cleavage rate” value is 0.000256 ± 0.0097.

In the case of UAGUGACAGUGGAACUCUGAUAGAUUAACA, the “pre-steady-state target cleavage rate” value came out at 0.00019 ± 0.027.

UAGUGUGUCAGCUUCUCUGUGAGAUUAACA: the “pre-steady-state target cleavage rate” value worked out at 0.0415 ± 0.0032.

For UAGUGACAGUGGAAGAGUGAGUCAUUAACA, the “pre-steady-state target cleavage rate” value is 0.00063 ± 0.011.

With UAGUGACAGACGUACUCUGAGAGAUUAACA, the “pre-steady-state target cleavage rate” value turned out to be 0.014 ± 0.0034.

With UAGUGACUCACCUUCUCUGACAGAAUAACA, the “pre-steady-state target cleavage rate” value turned out to be 0.00203 ± 0.0057.

As to UAGUGACAGACCAUCUCUGAGAGAAUAACA, the “pre-steady-state target cleavage rate” value turned out to be 0.00126 ± 0.0095.

As to UAGUGACAGUGGUUCUGUGUGAGAUUAACA, the “pre-steady-state target cleavage rate” value is 0.00167 ± 0.0059.

Regarding UAGUGACAGUGGAAGAGAGAGAGAUAAUCA, the “pre-steady-state target cleavage rate” value came to 0.000146 ± 0.04.

Turning to UAGUGACAGACCUUCUCUCAGUGAUUAACA, the “pre-steady-state target cleavage rate” value was 0.00304 ± 0.0041.

As to UAGUGUGUCUGCUUCUCUGAGAGAUUUUGA, the “pre-steady-state target cleavage rate” value is 0.000624 ± 0.01.

For the sequence UAGUGAGUCAGCUUCUCUGAGAGAUAUUGA, the “pre-steady-state target cleavage rate” value worked out at 0.000914 ± 0.0098.

For the sequence UAGUGACUCACCUUGUCUGAGUGAUUAACA, the “pre-steady-state target cleavage rate” value turned out to be 0.00135 ± 0.0084.

As for UAGUGACAGUCCUUCUCUGAGAGUAAAACA, the “pre-steady-state target cleavage rate” value was determined as 0.000459 ± 0.013.

As to UAGUGACAGUGCUUGAGUGAGAGAUUAACA, the “pre-steady-state target cleavage rate” value came out at 0.000543 ± 0.013.

Regarding UAGUGACAGUGCUUCUCCGAGAGAUUAACA, the “pre-steady-state target cleavage rate” value worked out at 0.0082 ± 0.0034.

Turning to UAGUGACUCACCUUCUCUGAGUGUUUAACA, the “pre-steady-state target cleavage rate” value stood at 0.00112 ± 0.005.

Turning to UAGUGUGUCACCUACUCUGAGAGAUUAAGA, the “pre-steady-state target cleavage rate” value came to 0.1 ± 0.023.

For UAGUGACUCACCUUCUCUGUGAGAUAUUGA, the “pre-steady-state target cleavage rate” value came to 0.00283 ± 0.0045.

In the case of UAGUCUGUCACCUUCUCUGAGAGACUAACA, the “pre-steady-state target cleavage rate” value turned out to be 0.149 ± 0.027.

For UAGUGACAGUGGAACUCUGAGAGAUCAACA, the “pre-steady-state target cleavage rate” value is 0.000106 ± 0.045.

For UAGUGACUGUCCUUCUCUGAGAGAUUUUGA, the “pre-steady-state target cleavage rate” value was 0.000108 ± 0.06.

Consider UAGUCUGUCACCUUCUCUGACUCAUUUUGA, for which the “pre-steady-state target cleavage rate” value was found to be 0.00094 ± 0.0055.

UAGUGACACACCUUCUCUGACAGAUUUACA: the “pre-steady-state target cleavage rate” value was determined as 0.00201 ± 0.0058.

Consider UAGUGACACACCUUGUCUGAGAGAUAUUGA, for which the “pre-steady-state target cleavage rate” value worked out at 0.000475 ± 0.021.

With UAGUCUGACACCUUCUCUGAGAGAUAUUGA, the “pre-steady-state target cleavage rate” value was determined as 0.000677 ± 0.0068.

Take UAGUGACAGUGGAAGACUGAGAGAUUUAACA: the “pre-steady-state target cleavage rate” value stood at 0.000421 ± 0.01.

In the case of UAGUGACUCACCUUGCUCUGAGAGAUUAACA, the “pre-steady-state target cleavage rate” value was determined as 0.048 ± 0.016.

For UAGUGACAGUCCUUCUCUGUCAGAUUAACA, the “pre-steady-state target cleavage rate” value was found to be 0.00261 ± 0.0031.

Regarding UAGUGACACAGCUUCUCUGAGAGAUUUUGA, the “pre-steady-state target cleavage rate” value stood at 0.000762 ± 0.01.

For the sequence UAGUGACACACCUUCUCUAGAGAGAUUAACA, the “pre-steady-state target cleavage rate” value came out at 0.000791 ± 0.015.

UAGUGACAGUGGAAGUCUGAAAGAUUAACA: the “pre-steady-state target cleavage rate” value amounted to 0.000301 ± 0.015.

Consider UAGUCUGUCUCCUACUCUGAGAGAUUAACA, for which the “pre-steady-state target cleavage rate” value came out at 0.157 ± 0.0082.

Consider UAGUGACACACCUUCUCUGAGACUUUAUGA, for which the “pre-steady-state target cleavage rate” value is 0.000264 ± 0.017.

On to UAGUGACAGUGGAUCCUCUGAGAGAUUAACA, for which the “pre-steady-state target cleavage rate” value was determined as 0.00199 ± 0.0026.

As to UAGUGACACACCUUGAGUGAGAGAUUAAGA, the “pre-steady-state target cleavage rate” value is 0.00097 ± 0.013.

Turning to UAGUGACAGUGCUUCCUGAGAGAUUAACA, the “pre-steady-state target cleavage rate” value was 0.00339 ± 0.0047.

Take UAGUGACACACCAUCUCUGAGAGAUUAUGA: the “pre-steady-state target cleavage rate” value worked out at 0.00752 ± 0.0041.

In the case of UAGUGACACACCUUGUCUGAGACAUUAACA, the “pre-steady-state target cleavage rate” value was 0.0978 ± 0.026.

In the case of UAGUGACAGUGGAAGAGACUGAGCAUUAACA, the “pre-steady-state target cleavage rate” value was 0.00045 ± 0.011.

With “UAGUGACAGUGGAACUCUGAGAGAUUAACC [g2:g16:cont:t1C]”, the “pre-steady-state target cleavage rate” value was 0.000205 ± 0.032.

In the case of UAGUGACAGUCCUUCUCUGAGACAUUUACA, the “pre-steady-state target cleavage rate” value came out at 0.000377 ± 0.014.

UAGUAUGUCACCUUCUCUGAGAGAUUAACA: the “pre-steady-state target cleavage rate” value was found to be 0.211 ± 0.019.

Regarding UAGUGAGUCACCUUCUCUCUCAGAUUUUGA, the “pre-steady-state target cleavage rate” value is 0.000814 ± 0.014.

In the case of UAGUGACAGUGGUUCUCUGAGAGAUAUAACA, the “pre-steady-state target cleavage rate” value was 0.000383 ± 0.013.

With UAGUGACAGUGGAACUCUGAGACGAUUAACA, the “pre-steady-state target cleavage rate” value stood at 0.00126 ± 0.015.

Take UAGUGACAGUCCUUCUCUGAGAGUAUAACA: the “pre-steady-state target cleavage rate” value stood at 0.00121 ± 0.0043.

On to UAGUGACUCACCUUCUCGUGAGAGAUUAACA, for which the “pre-steady-state target cleavage rate” value came to 0.00068 ± 0.011.

For the sequence UAGUGACAGUCCUUCUCUCAGAGAUUAUCA, the “pre-steady-state target cleavage rate” value was found to be 0.00297 ± 0.0045.

UAGUCUGUCACCAAGUCUGAGAGAUUAUGA: the “pre-steady-state target cleavage rate” value turned out to be 0.00112 ± 0.0069.

Take UAGUGAGUACACCUUCUCUGAGAGAUUAACA: the “pre-steady-state target cleavage rate” value came to 0.237 ± 0.019.

For the sequence UAGUGACAGUGGUUCUCUGAGAGAUUCACA, the “pre-steady-state target cleavage rate” value turned out to be 0.000545 ± 0.0099.

Regarding UAGUGACAGACCUACUCUGAGAGAAUAACA, the “pre-steady-state target cleavage rate” value turned out to be 0.00113 ± 0.0074.

As for UAGUGACAGUGGAAGACUGAGAGAUGUAACA, the “pre-steady-state target cleavage rate” value was determined as 0.000199 ± 0.011.

For the sequence UAGUGACAGACCUUGAGUGAGAGAUUAAGA, the “pre-steady-state target cleavage rate” value is 0.000293 ± 0.04.

On to UAGUGAGUCACCUUCUCUGAGUCAUUAACA, for which the “pre-steady-state target cleavage rate” value is 0.00255 ± 0.0046.

For the sequence UAGUGACACACCUUCUCUGAGAGAAAUACA, the “pre-steady-state target cleavage rate” value turned out to be 0.0296 ± 0.013.

For UAGUGACAGUGGAUCUCUGAGACAUUAUCA, the “pre-steady-state target cleavage rate” value came to 0.000139 ± 0.034.

As for UAGUGACAGUGGUUCUCUGAGAGAUUACACA, the “pre-steady-state target cleavage rate” value was found to be 0.000483 ± 0.0099.

Consider UAGUGACAGACCUUCUCACUGAGAUUAACA, for which the “pre-steady-state target cleavage rate” value was 0.000552 ± 0.018.

On to UAGUGACAGUGGUUCUCUGAGAGCAUUAACA, for which the “pre-steady-state target cleavage rate” value turned out to be 0.00145 ± 0.0038.

With UAGUGUGUCACCUUCUCUGAGAGAAUUAACA, the “pre-steady-state target cleavage rate” value came to 0.277 ± 0.048.

For UAGUGAGUCACCUUCUCUGACUCAUUAACA, the “pre-steady-state target cleavage rate” value was 0.000778 ± 0.016.
